# Measured values: PubChem BioAssay AID743255 (National Center for Advancing Translational Sciences (NCATS), 2014)
# Sequences of proteins named here, by UniProt entry; tags and fusion partners are left off. A change or cut given only in a name is not applied to a line headed by its entry.
# UniProt O94782: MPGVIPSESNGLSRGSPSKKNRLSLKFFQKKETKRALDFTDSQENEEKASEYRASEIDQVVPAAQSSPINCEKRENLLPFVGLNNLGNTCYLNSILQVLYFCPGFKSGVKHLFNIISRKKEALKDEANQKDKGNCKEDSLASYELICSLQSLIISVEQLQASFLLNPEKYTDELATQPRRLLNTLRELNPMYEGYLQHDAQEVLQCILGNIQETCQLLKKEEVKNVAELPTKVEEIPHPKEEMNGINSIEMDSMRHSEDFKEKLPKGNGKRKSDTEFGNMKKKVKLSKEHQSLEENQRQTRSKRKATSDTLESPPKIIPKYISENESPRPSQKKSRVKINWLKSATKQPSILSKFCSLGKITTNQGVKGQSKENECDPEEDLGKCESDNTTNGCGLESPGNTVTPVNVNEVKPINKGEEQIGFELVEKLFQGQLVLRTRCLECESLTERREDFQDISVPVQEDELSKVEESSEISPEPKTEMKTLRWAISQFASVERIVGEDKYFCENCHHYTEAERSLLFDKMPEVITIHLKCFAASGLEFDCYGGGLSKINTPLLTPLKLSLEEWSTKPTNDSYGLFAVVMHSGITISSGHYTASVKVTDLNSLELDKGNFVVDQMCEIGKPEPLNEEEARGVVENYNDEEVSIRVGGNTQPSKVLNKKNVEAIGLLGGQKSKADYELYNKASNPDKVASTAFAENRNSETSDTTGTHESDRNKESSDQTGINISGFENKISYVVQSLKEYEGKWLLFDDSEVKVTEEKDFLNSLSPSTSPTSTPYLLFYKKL
# About 910 (0.23%) of roughly 390,000 compounds were called active. This list was built around the results that the source calls inconclusive (neither active nor inactive); the mix of calls is not that of the screen. Calls come from the whole dose curve; as a rule, active = well fitted inhibition curve with a large enough effect; inconclusive = small, poorly fitted or top-dose-only effect; inactive = no such curve, though single readings can be large or run the other way. Potencies of inconclusive entries are doubtful fits and often do not repeat.
# Target: Ubiquitin carboxyl-terminal hydrolase 1 (Homo sapiens) (UniProt O94782)
# Test: Inhibitors of USP1/UAF1: Primary Screen; note: nearly all actives have a fitted effect of over 60% in size
# Settings: recombinant USP1/UAF1, Ub-Rhodamine cleavage fluorescence; activity change, negative = inhibition: at 57.1 µM (top of the series)
# Procedure, shortened: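 High-throughput fluorogenic screen: 1nM USP1/UAF1 complex, Ub-Rho substrate 150nM final, 50mM HEPES pH 7.8 with 0.5mM EDTA, 0.1 mg/ml BSA, 1mM TCEP and 0.01% Tween-20.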
# % is set by controls: 0 for no effect and ±100 for the full control effect; potency is the fitted concentration of half-maximal effect.
SMILES,Potency,"activity change, negative = inhibition"
COc1ccc([C@H]2CC(=O)C=C(c3ccc(C(F)(F)F)c(C(F)(F)F)c3)C2)cc1OC,"inconclusive: 0.631 µM [inhibitor, full curve, poor fit]",–
Fc1cccc(Nc2ncnc3c2cnn3-c2ccccc2)c1,–,inactive: -17.4%
COC(=O)CSC1=C(C#N)C(c2cccc(OC)c2)CC(=O)N1 (configuration not stated),"inconclusive: 56.2 µM [inhibitor, partial curve, poor fit]",–
COc1ccc(C2=C(C)C(N3CCC(C(=O)Nc4ccccc4F)CC3)=NS2(=O)=O)cc1,"inconclusive: 10 µM [inhibitor, partial curve, poor fit]",–
O=C(Nc1cccc(-c2ccc(N3CCOCC3)nn2)c1)c1ccc(F)cc1F,"inconclusive: 126 µM [inhibitor, partial curve, poor fit]",–
Cc1ccc2ccc3ccc(C)nc3c2n1,"inconclusive: 44.7 µM [inhibitor, partial curve, poor fit]",–
COc1ccc(C(=O)N2C=Cc3ccccc3C2C#N)cc1 (configuration not stated),"inconclusive: 31.6 µM [inhibitor, partial curve]",–
CC(=O)c1ccc(S(=O)(=O)N2CCn3cccc3C2c2ccccc2F)cc1 (configuration not stated),"inconclusive: 17.8 µM [inhibitor, partial curve]",–
CC[C@]12c3[nH]c4ccc(Cl)cc4c3CCN1C(=O)[C@@H](CC(=O)NCc1cccc(C(F)(F)F)c1)C[C@@H]2C(=O)N1CCN(C(=O)c2ccco2)CC1,–,inactive: -18.8%
Cc1ccc(S(=O)(=O)c2nc(C)oc2N2CCOCC2)cc1,"inconclusive: 10 µM [inhibitor, partial curve, poor fit]",–
CCOc1ccccc1NC(=O)C1CCN(S(=O)(=O)c2ccc3[nH]c(=O)oc3c2)CC1,"inconclusive: 15.8 µM [inhibitor, partial curve]",–
Oc1ccc2c(c1)c1c3n2CCNC3CCC1 (configuration not stated),–,inactive: -20.8%
CC(=O)Nc1cccc(NC(=S)Nc2ccc(F)cc2F)c1,"inconclusive: 0.1 µM [inhibitor, full curve, poor fit]",–
CCN1CCN(Cc2c(O)ccc3c2O/C(=C\C=C\c2ccccc2OC)C3=O)CC1,active: 28.2 µM,–
COc1ccccc1CNC(=O)c1cc2c(=O)oc3ccc(C)cc3c2s1,"inconclusive: 8.91 µM [inhibitor, partial curve]",–
Cc1cc(C(=O)N2CCN(c3ccccc3)CC2)c2c(C)nn(-c3cccc(F)c3)c2n1,"inconclusive: 4.47 µM [inhibitor, partial curve]",–
CC(C)OC(=O)N(C)C[C@@H]1OCc2cnnn2CCCC(=O)N([C@@H](C)CO)C[C@@H]1C,"inconclusive: 0.355 µM [inhibitor, full curve, poor fit]",–
CCSc1nnc(-c2ccc(Cl)cc2)c2ccccc12,"inconclusive: 25.1 µM [inhibitor, partial curve]",–
CCC(C)NC(=O)c1c(C)oc2ncn(CC(C)C)c(=O)c12 (configuration not stated),–,inactive: -17.4%
O=S(=O)(c1cccs1)N1CCN(S(=O)(=O)c2cccs2)CC1,–,inactive: -16.6%
COc1ccc(C(=O)O/N=C(\N)c2ccccn2)c(OC)c1,"inconclusive: 7.94 µM [inhibitor, single point]",–

SMILES,Potency,"activity change, negative = inhibition"
CCN1C(=O)N[C@@H](CCc2ccccc2)C(C(C)=O)=C1C,–,inactive: 4.7%
COc1ccc(-c2cn(Cc3ccc(C)cc3)nn2)cc1,"inconclusive: 3.98 µM [inhibitor, full curve, poor fit]",–
CCN(CC(=O)Nc1cc(Cl)ccc1C)C(=O)c1ccc2c(c1)NC(=O)C(C)S2 (configuration not stated),"inconclusive: 12.6 µM [inhibitor, partial curve]",–
Cc1ccn2c(NCc3ccccc3)c(-c3cccc(SC4CCCCC4)c3)nc2c1,"inconclusive: 44.7 µM [inhibitor, partial curve, poor fit]",–
Cc1ccsc1C=Nc1ccc(O)cc1,active: 2.24 µM,–
Nc1ccc2nc(CCCO)[nH]c2c1,"inconclusive: 44.7 µM [inhibitor, partial curve]",–
CCOC(=O)c1ccccc1NC(=O)Cn1ncc2c1-c1ccccc1OC2,"inconclusive: 39.8 µM [inhibitor, partial curve, poor fit]",–
CCOc1ccc(S(=O)(=O)NC(C)C(=O)NCc2ccncc2)cc1 (configuration not stated),"inconclusive: 44.7 µM [inhibitor, single point]",–
CCOC(=O)c1[nH]c2c(c1Cc1ccccc1OC)C(=O)CC(c1ccc(OC)cc1)C2 (configuration not stated),–,inactive: -6.86%
CCc1ccc(-n2c(=O)c3c4c(sc3n(Cc3cc(=O)n5c(C)cccc5n3)c2=O)CCC4)cc1,–,inactive: -27.2%
Cn1ccnc1C(O)c1ccco1 (configuration not stated),"inconclusive: 31.6 µM [inhibitor, single point]",–
Cc1cccc(N=Cc2cc(Br)cc(Cl)c2O)c1,"inconclusive: 31.6 µM [inhibitor, partial curve]",–
CC(C)NC(=O)c1sc2nc(-c3cccs3)cc(-c3cccs3)c2c1N,"inconclusive: 28.2 µM [inhibitor, partial curve]",–
COc1cc(/C=N/NC(=O)C(Cc2c[nH]c3ccccc23)NC(=O)OCc2ccccc2)cc([N+](=O)[O-])c1O (configuration not stated),"inconclusive: 44.7 µM [inhibitor, partial curve]",–
Cc1cc(=O)oc2cc(NC(=O)C3COc4ccccc4O3)ccc12 (configuration not stated),"inconclusive: 31.6 µM [inhibitor, single point]",–
Cc1cccc(C)c1NC(=O)CN1CCN(C(=O)CCC(=O)N2CCC(c3ccccc3)=N2)CC1,"inconclusive: 0.1 µM [inhibitor, full curve, poor fit]",–
CCOCCn1c(-c2ccccc2)nc2ccccc21,"inconclusive: 35.5 µM [inhibitor, single point]",–
CN(CC(=O)Nc1cc(C(F)(F)F)ccc1-n1cncn1)Cc1ccccc1N1CCOCC1,"inconclusive: 79.4 µM [inhibitor, partial curve, poor fit]",–
O=C1c2ccccc2NC(c2ccccc2Br)N1CCCN1CCOCC1 (configuration not stated),–,inactive: -1.62%
CCOC(=O)N1CCc2c(sc3c2C(=O)NC(c2cc(OC)c(OC)c(OC)c2)N3)C1 (configuration not stated),–,inactive: -13.2%
CN(C)c1ccc(/C=C/C(=O)c2c(O)c3ccccc3oc2=O)cc1,"inconclusive: 3.55 µM [inhibitor, partial curve]",–

# 4 compounds out of the list, ordered by number of heavy atoms, high to low:
SMILES,Potency,"activity change, negative = inhibition"
Cc1cccc(C)c1NC(=O)CN1CCN(C(=O)CCC(=O)N2CCC(c3ccccc3)=N2)CC1,"inconclusive: 0.1 µM [inhibitor, full curve, poor fit]",–
CN(CC(=O)Nc1cc(C(F)(F)F)ccc1-n1cncn1)Cc1ccccc1N1CCOCC1,"inconclusive: 79.4 µM [inhibitor, partial curve, poor fit]",–
CC(C)NC(=O)c1sc2nc(-c3cccs3)cc(-c3cccs3)c2c1N,"inconclusive: 28.2 µM [inhibitor, partial curve]",–
CCOc1ccc(S(=O)(=O)NC(C)C(=O)NCc2ccncc2)cc1 (configuration not stated),"inconclusive: 44.7 µM [inhibitor, single point]",–
